This note sets out measurements from publication PMC5762300.

Sequences of proteins named here, by UniProt entry; tags and fusion partners are left off. A change or cut given only in a name is not applied to a line headed by its entry.
UniProt Q13905: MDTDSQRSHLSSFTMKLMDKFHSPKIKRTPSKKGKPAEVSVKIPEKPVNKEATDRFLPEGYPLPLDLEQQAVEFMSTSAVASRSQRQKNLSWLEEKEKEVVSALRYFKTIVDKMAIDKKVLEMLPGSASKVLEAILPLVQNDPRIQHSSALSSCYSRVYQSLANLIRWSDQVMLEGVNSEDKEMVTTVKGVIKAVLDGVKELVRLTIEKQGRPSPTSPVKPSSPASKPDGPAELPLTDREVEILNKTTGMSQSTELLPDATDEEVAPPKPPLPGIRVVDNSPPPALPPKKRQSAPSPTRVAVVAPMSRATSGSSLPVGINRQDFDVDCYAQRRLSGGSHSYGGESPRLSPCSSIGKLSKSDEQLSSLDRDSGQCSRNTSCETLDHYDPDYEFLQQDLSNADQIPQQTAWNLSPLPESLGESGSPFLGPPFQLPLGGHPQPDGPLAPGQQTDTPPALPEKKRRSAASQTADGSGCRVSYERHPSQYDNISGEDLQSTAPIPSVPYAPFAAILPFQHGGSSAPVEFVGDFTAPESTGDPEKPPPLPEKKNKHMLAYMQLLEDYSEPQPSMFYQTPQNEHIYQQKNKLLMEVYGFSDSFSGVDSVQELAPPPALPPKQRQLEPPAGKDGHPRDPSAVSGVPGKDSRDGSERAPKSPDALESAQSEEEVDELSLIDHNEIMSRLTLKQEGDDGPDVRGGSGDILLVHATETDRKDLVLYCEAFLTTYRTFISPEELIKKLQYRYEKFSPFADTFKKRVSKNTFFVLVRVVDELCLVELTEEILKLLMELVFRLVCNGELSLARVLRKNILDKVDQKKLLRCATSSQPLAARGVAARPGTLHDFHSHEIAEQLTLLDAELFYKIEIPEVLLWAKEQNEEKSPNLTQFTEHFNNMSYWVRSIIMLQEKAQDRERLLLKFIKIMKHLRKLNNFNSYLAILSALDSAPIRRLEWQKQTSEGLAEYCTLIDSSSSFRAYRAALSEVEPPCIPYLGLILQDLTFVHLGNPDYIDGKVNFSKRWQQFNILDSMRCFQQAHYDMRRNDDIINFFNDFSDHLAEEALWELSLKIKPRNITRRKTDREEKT
UniProt P51809: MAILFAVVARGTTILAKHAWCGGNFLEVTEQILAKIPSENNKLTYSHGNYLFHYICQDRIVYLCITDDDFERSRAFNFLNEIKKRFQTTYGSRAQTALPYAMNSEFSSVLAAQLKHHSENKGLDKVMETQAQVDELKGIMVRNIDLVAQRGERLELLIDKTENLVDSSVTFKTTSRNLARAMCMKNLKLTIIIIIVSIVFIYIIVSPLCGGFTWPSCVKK

These are yes or no findings as the source states them, for the method shown. In cells and extracts the contact can be indirect. Binding calls can cover weak binding; strength is not graded here.

The assay concerns the target C3G∆Cat (pLTR2C3G∆Cat construct) (human) (UniProt Q13905). The assay can be described thus: co-IP; HEK293T cells co-transfected with pLTR2C3G∆Cat and CFP-VAMP-7 fusion proteins; immunoprecipitated with anti-C3G antibodies; VAMP-7 detected with anti-GFP.
Turning to “CFP-VAMP7-CT, C-terminal (SNARE) domain of VAMP-7 (aminoacids 121-188) (from UniProt P51809 121-188) (domain or fragment)”, the binding result was “binds”.

For “CFP-VAMP7-NT, N-terminal (longin) domain of VAMP-7 (aminoacids 1-120) (from UniProt P51809 1-120) (domain or fragment)”, the binding result is reported as “binds”.

Consider “CFP-VAMP7-cyto, VAMP-7 cytosolic domain (aminoacids 1-188) (from UniProt P51809 1-188) (domain or fragment)”, for which the binding entry is reported as “binds”.
